Values from PubChem BioAssay AID743454 (Peter MacCallum Cancer Centre, 2014)

- Aim: 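Knock-downs lowering viability or raising caspase 3/7 activity in vorinostat-treated resistant cells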 (primary screen)
- Cells: human HCT116-VR colon cancer cells, selected for vorinostat resistance
- Reagents: siRNA pool against human genes, 40 nM siRNA pool
- Timing: vorinostat for 24 h, read-out about 72 h after transfection
- Conditions: vorinostat at 2.5 µM final
- Detection: 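Cell viability by CellTiter-Fluor and caspase 3/7 activity by luminescence, each scaled to mock wells per plate, duplicates averaged, then robust z-scored over all plates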
- Reading the numbers: viability robust z-score: higher = more viable cells than screen typical; caspase robust z-score: higher = more caspase 3/7 activity than screen typical
- Call rule: 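a knock-down is a hit when classed RV1 or RV2 for lowered viability, or CA1 or CA2 for caspase activation; those lethal without drug were dropped; hits were retested singly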
The whole screen tested about 18,000 reagents; shown is a random part of them. Of all reagents, 450 (2.5%) got an active call. 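Single biological run; no consistent viability z cut-off exists, so the class columns, not z-scores, define the calls.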 No sequences are given here.

The opening 2 records as a preview:
SNAI2
- viability hit class: no change
- caspase hit class: no change
- viability robust z-score: 0.48
- caspase robust z-score: -0.78
- outcome: inactive

ZNF70
- viability hit class: no change
- caspase hit class: no change
- viability robust z-score: -1.77
- caspase robust z-score: -0.53
- outcome: inactive

The listing, repeating the preview:
SNAI2
- viability hit class: no change
- caspase hit class: no change
- viability robust z-score: 0.48
- caspase robust z-score: -0.78
- outcome: inactive

ZNF70
- viability hit class: no change
- caspase hit class: no change
- viability robust z-score: -1.77
- caspase robust z-score: -0.53
- outcome: inactive

SMARCAD1
- viability hit class: no change
- caspase hit class: no change
- viability robust z-score: 0.92
- caspase robust z-score: 1
- outcome: inactive

DYNLRB1
- viability hit class: no change
- caspase hit class: no change
- viability robust z-score: -0.21
- caspase robust z-score: -0.31
- outcome: inactive

OAZ2
- viability hit class: no change
- caspase hit class: no change
- viability robust z-score: 0.68
- caspase robust z-score: -0.26
- outcome: inactive

GSDMB
- viability hit class: no change
- caspase hit class: no change
- viability robust z-score: -0.04
- caspase robust z-score: 1.03
- outcome: inactive

TMEM41B
- viability hit class: no change
- caspase hit class: no change
- viability robust z-score: 0.25
- caspase robust z-score: 1.84
- outcome: inactive

UNC5C
- viability hit class: no change
- caspase hit class: no change
- viability robust z-score: -0.22
- caspase robust z-score: 0.82
- outcome: inactive

FBXO11
- viability hit class: no change
- caspase hit class: no change
- viability robust z-score: 0.24
- caspase robust z-score: 0.48
- outcome: inactive

RADX
- viability hit class: no change
- caspase hit class: no change
- viability robust z-score: 1.68
- caspase robust z-score: -0.02
- outcome: inactive

UCP3
- viability hit class: no change
- caspase hit class: no change
- viability robust z-score: 1.37
- caspase robust z-score: 1.17
- outcome: inactive

USP9X
- viability hit class: no change
- caspase hit class: no change
- viability robust z-score: -0.08
- caspase robust z-score: -1.02
- outcome: inactive

ZNF195
- viability hit class: no change
- caspase hit class: no change
- viability robust z-score: 0.99
- caspase robust z-score: 0.14
- outcome: inactive

ZBED1
- viability hit class: no change
- caspase hit class: no change
- viability robust z-score: -0.69
- caspase robust z-score: -0.6
- outcome: inactive
